{"source": "PubChem BioAssay AID1347076", "about": "(National Center for Advancing Translational Sciences (NCATS), 2019)", "note": "Several values for one entry are separate records, joined by “and”; a condition that tells them apart may be missing. Equal entries are not always repeated. Out of some 400,000 compounds screened, about 13,000 (3.2%) were called active. The shares of active, inactive and inconclusive entries below differ from those in the screen. Calls follow the shape of the dose curve; as a rule, active = well fitted cell-killing curve with a large enough effect; inconclusive = small, poorly fitted or top-dose-only effect, or effect the other way; inactive = flat fitted curve, though single readings scatter. Where the call is inconclusive, the potency comes from a doubtful curve fit. % is scaled to controls: 0 for no effect and ±100 for the full control effect; potency is read from the fitted curve at half-maximal effect.", "data": [{"assay": "qHTS assay for MDR1-selective chemotherapeutics: Primary screen using the drug-selected MDR subline cells KB-V1; also: nearly all actives have a fitted effect of over 60% in size", "settings": "KB-V1 MDR cells viability, CellTiter-Glo, 72 h; activity change, negative = cytotoxicity: at 46.1 µM (top of the series)", "how_it_was_run": "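qHTS viability screen in drug-selected KB-V1 MDR cells: 72 h compound treatment at 37 degrees C, ATP luminescence end point.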", "values": [{"compound": "COc1ccc(C(=O)CC(=O)C(=O)Nc2cccc(F)c2)cc1", "Potency": "inactive"}, {"compound": "Cc1ccc(O)c(NC(=O)c2ccc(Br)c(S(=O)(=O)N3CCCCC3)c2)c1", "Potency": "inconclusive: 20.6 µM [cytotoxic, single point]"}, {"compound": "Cc1ccc(OCC(=O)c2cc(C)n(-c3ccccc3)c2C)c([N+](=O)[O-])n1", "Potency": "active: 20.6 µM"}, {"compound": "COc1ccc2cc(OCC(=O)NNC(=O)Nc3ccc(C(C)=O)cc3)ccc2c1", "Potency": "inactive"}, {"compound": "CCC(c1nnnn1C1CCCCC1)N(Cc1ccco1)Cc1cc2ccc(OC)cc2[nH]c1=O", "note": "(configuration not stated)", "Potency": "inconclusive: 29.1 µM [cytotoxic, single point]"}, {"compound": "Cc1ccc(Cn2cc(CN(C)C3CN(Cc4cn(Cc5ccc(C)cc5)nn4)S(=O)(=O)C3)nn2)cc1", "note": "(configuration not stated)", "Potency": "inconclusive: 23.1 µM [cytotoxic, partial curve]"}, {"compound": "COc1cc(Cl)c(S(=O)(=O)N2CC(C)OC(C)C2)cc1Cl", "note": "(configuration not stated)", "Potency": "inconclusive: 29.1 µM [cytotoxic, single point]"}, {"compound": "COCCNC(=O)C(=O)NCC1OCCN1S(=O)(=O)c1cccs1", "note": "(configuration not stated)", "Potency": "inactive"}, {"compound": "CC(=O)c1sc2c(c1OC(=O)c1ccc(Cl)cc1)c(=O)n(-c1ccccc1)c(=S)n2-c1ccccc1", "Potency": "active: 14.6 µM"}, {"compound": "CCCCc1ncc(CN2CCC(n3nccc3NC(=O)c3ccccc3OC)CC2)[nH]1", "Potency": "inconclusive: 5.8 µM [rising, full curve, poor fit]"}, {"compound": "COc1cc(CN(C)Cc2nc3cc(C(F)(F)F)ccc3c(=O)[nH]2)ccc1OC(F)F", "Potency": "inconclusive: 20.6 µM [cytotoxic, single point]"}, {"compound": "O=C(O)c1ccc(N2CC3CC(C2)c2cccc(=O)n2C3)c(NC(=S)Nc2ccc(Br)cc2)c1", "note": "(configuration not stated)", "Potency": "inconclusive: 23.1 µM [rising, single point]"}, {"compound": "CCCSc1ccc2nc(NC(=O)OC)[nH]c2c1", "Potency": "active: 2.31 µM and active: 1.64 µM"}, {"compound": "O=C(O)CCC(=O)N1CCc2cc(S(=O)(=O)NCc3ccc(Cl)cc3)ccc21", "Potency": "inconclusive: 0.0073 µM [rising, full curve]"}, {"compound": "Cc1nn(-c2ccc(Cl)cc2)c2[nH]c(=O)c(CNCc3ccc4c(c3)OCO4)cc12", "Potency": "inconclusive: 25.9 µM [cytotoxic, single point]"}, {"compound": "CN(c1ccc(C(=O)Nc2ccc3c(c2)OCO3)cc1)S(C)(=O)=O", "Potency": "inconclusive: 20.6 µM [cytotoxic, single point]"}, {"compound": "CC(C)C[C@H]1CNC(=S)N1C[C@H]1CCCN1C[C@H](CC(C)C)N1C[C@H](Cc2ccc(O)cc2)N(CC2CCCCCC2)C1=S", "Potency": "inconclusive: 29.1 µM [cytotoxic, single point]"}, {"compound": "CCOC(=O)C(O)C1CCc2c([nH]c3ccc(C)cc23)C1=O", "note": "(configuration not stated)", "Potency": "active: 18.4 µM"}, {"compound": "CC1=[N+]([O-])C(C)(C)C(c2ccc(Br)cc2)=[N+]1[O-]", "Potency": "inconclusive: 23.1 µM [rising, partial curve, poor fit]"}, {"compound": "Cc1ccc(O)c(C(=O)c2cc(C#N)c(=O)n(C(C)c3ccccc3)c2)c1", "note": "(configuration not stated)", "Potency": "inconclusive: 5.8 µM [cytotoxic, full curve]"}, {"compound": "CC(NC(=O)c1ccc([N+](=O)[O-])o1)C1CC2CCC1C2", "note": "(configuration not stated)", "Potency": "inconclusive: 29.1 µM [cytotoxic, single point]"}, {"compound": "Cc1cc2c(c(=O)n1CCc1ccccc1)C(C(C)C)C(C#N)=C(N)O2", "note": "(configuration not stated)", "Potency": "inconclusive: 1.84 µM [cytotoxic, full curve, poor fit]"}, {"compound": "N/C(=N\\OC(=O)C1CCCCC1)c1cccc(Br)c1", "Potency": "inconclusive: 18.4 µM [rising, single point]"}, {"compound": "CN(C)/C=C(\\C(=O)c1ccc(F)cc1F)c1nnnn1-c1ccccc1", "Potency": "inconclusive: 13 µM [rising, partial curve, poor fit]"}, {"compound": "CC(C)(C)OC(=O)C[C@H]1C/C=C\\C[C@H](CC(=O)NCCO)C(=O)NC[C@@H](c2ccccc2)OC1=O", "Potency": "inactive"}, {"compound": "CC(C)(C)c1cc(CP(=O)(c2ccccc2)c2ccccc2)cc(C(C)(C)C)c1O", "Potency": "inconclusive: 8.2 µM [cytotoxic, partial curve]"}, {"compound": "Cc1cc(C)c(C)c(S(=O)(=O)NCCN2CCOCC2)c1C", "activity change, negative = cytotoxicity": "inconclusive: -5.75%"}, {"compound": "COc1cc(/C=N/Nc2ccc(F)cc2F)cc(OC)c1O", "Potency": "inactive"}, {"compound": "CCN(CC)S(=O)(=O)c1ccc(OC)c(NC(=O)c2cccc(C)c2[N+](=O)[O-])c1", "Potency": "inactive"}, {"compound": "Nc1nc(SCCOc2ccccc2)n[nH]1", "Potency": "inconclusive: 25.9 µM [rising, partial curve, poor fit]"}, {"compound": "COc1cc(C(CC(=O)Nc2ccc(F)cc2F)N2Cc3ccccc3C2=O)cc(OC)c1OC", "note": "(configuration not stated)", "Potency": "inactive"}, {"compound": "CCCN1CCN(c2ncnc3c2nnn3Cc2ccccc2)CC1", "Potency": "active: 16.4 µM"}, {"compound": "CCN(CC(=O)N1CCN(Cc2ccccc2)CC1)S(=O)(=O)c1ccccc1", "Potency": "inconclusive: 7.31 µM [cytotoxic, partial curve]"}, {"compound": "CCS(=O)(=O)c1ncc(N(Cc2ccccc2)Cc2ccco2)c(C(=O)Nc2ccc(C)c(C)c2)n1", "Potency": "inactive"}, {"compound": "O=S(=O)(NCc1nnc2c(C(F)(F)F)cc(Cl)cn12)c1ccccc1", "Potency": "inconclusive: 32.6 µM [rising, single point]"}, {"compound": "CCCCn1c(-c2cccc(F)c2)nc2c1c(=O)[nH]c(=O)n2CC(C)C", "Potency": "inconclusive: 8.2 µM [cytotoxic, partial curve]"}, {"compound": "COc1ccc(OC)c(NC(=O)c2cc3cc(C)ccc3n2C)c1", "Potency": "inactive"}, {"compound": "OCC1OC(Nc2ccccc2C=NO)C(O)C1O", "note": "(configuration not stated)", "Potency": "inactive"}, {"compound": "CC(OC(=O)c1ccc(F)cc1)C(=O)Nc1nc(-c2cccc([N+](=O)[O-])c2)cs1", "note": "(configuration not stated)", "Potency": "active: 20.6 µM"}, {"compound": "CCCC(=O)OCC(=O)NC1CCCc2ccccc21", "note": "(configuration not stated)", "Potency": "inconclusive: 16.4 µM [cytotoxic, partial curve, poor fit]"}, {"compound": "Cn1c(=O)c(=O)n(C)c2cc(NC(=O)c3cccc(F)c3)c(Cl)cc21", "Potency": "inactive"}, {"compound": "CCCCCC(=O)N1CCCC(c2nc(-c3ccc(OC)cc3)no2)C1", "note": "(configuration not stated)", "Potency": "inconclusive: 14.6 µM [cytotoxic, partial curve, poor fit]"}, {"compound": "O=C(O)c1cc(OCc2ccccc2)cc(OCc2ccccc2)c1", "activity change, negative = cytotoxicity": "inconclusive: 32.5%"}, {"compound": "Cc1c(Cc2ccccc2)sc(NC(=O)/C=C/c2cccc3ccccc23)c1C(N)=O", "Potency": "inconclusive: 8.2 µM [cytotoxic, partial curve, poor fit]"}, {"compound": "CC(=O)c1cccc(Nc2nc(-c3sc(C)nc3C)cs2)c1", "Potency": "inconclusive: 13 µM [cytotoxic, partial curve, poor fit]"}, {"compound": "COc1cc(O)c2c(=O)c3c(O[C@H]4O[C@@H](CO)[C@H](O)[C@@H](O)[C@@H]4O)ccc(O)c3oc2c1", "Potency": "inconclusive: 18.4 µM [rising, single point]"}, {"compound": "CCOc1ccc(C(=O)Nc2cccc(-c3ccc(N4CCOCC4)nn3)c2)cc1OCC", "Potency": "inconclusive: 18.4 µM [cytotoxic, single point]"}, {"compound": "Clc1cccc(CNCCCSc2ncccn2)c1Cl", "Potency": "inconclusive: 0.0073 µM [cytotoxic, full curve]"}, {"compound": "CCOc1ccc(N(CC(=O)NCCSCc2ccco2)S(=O)(=O)c2ccc(F)cc2)cc1", "Potency": "inconclusive: 2.06 µM [cytotoxic, full curve]"}, {"compound": "CCOc1ccc(C(=O)c2cn(CC(=O)Nc3ccc(F)cc3)c3cc4c(cc3c2=O)OCO4)cc1", "Potency": "inactive"}, {"compound": "Cc1ccc(OCCN2CCC2(C)C(=O)Nc2ccc3c(c2)OCO3)cc1", "note": "(configuration not stated)", "Potency": "inconclusive: 14.6 µM [cytotoxic, partial curve, poor fit]"}, {"compound": "CCCCn1c(CCC(=O)O)nc2c1c(=O)[nH]c(=O)n2CCC", "Potency": "inactive"}, {"compound": "CC1(C2CCC3(C)OC3C2)CO1", "note": "(configuration not stated)", "Potency": "inconclusive: 8.2 µM [rising, partial curve, poor fit]"}, {"compound": "O=C1OCC2=C1C(c1ccc(Cl)cc1)c1cc3c(cc1O2)OCO3", "note": "(configuration not stated)", "Potency": "active: 23.1 µM"}, {"compound": "Cc1ccc(CCNC(=O)CCn2nc(-c3ccccc3)ccc2=O)cc1", "Potency": "inactive"}, {"compound": "Cc1cccc(OCCSc2nc(N)cc(N)n2)c1", "Potency": "inconclusive: 23.1 µM [cytotoxic, single point]"}, {"compound": "CCN(CC(=O)NCCc1ccc(Cl)cc1)Cc1nc2ccccc2c(=O)[nH]1", "Potency": "inconclusive: 20.6 µM [cytotoxic, single point]"}, {"compound": "Cc1ccc(N2C(=O)CSC2c2ccc3c(c2)OCO3)cc1", "note": "(configuration not stated)", "Potency": "inconclusive: 29.1 µM [cytotoxic, single point]"}, {"compound": "O=C(CCC1N=C2c3ccccc3N=C(SCc3ccc(Cl)cc3)N2C1=O)NCCc1ccccc1", "note": "(configuration not stated)", "Potency": "inconclusive: 29.1 µM [cytotoxic, single point]"}, {"compound": "N#Cc1cc2c(nc1SCC(=O)Nc1sc3c(c1C#N)CCC3)CCC2", "Potency": "inactive"}, {"compound": "c1cc2c(cc1C1CCCCC1)c1c3n2CCCNC3CCC1", "note": "(configuration not stated)", "Potency": "inconclusive: 29.1 µM [cytotoxic, single point]"}, {"compound": "O=C(Nc1ccc(F)cc1)c1ccccc1Oc1ccc(C(F)(F)F)cc1[N+](=O)[O-]", "Potency": "active: 16.4 µM"}, {"compound": "O/N=C/c1cc(Br)ccc1OCc1cccc(F)c1", "Potency": "inconclusive: 29.1 µM [cytotoxic, single point]"}, {"compound": "Fc1ccc(NC(=S)N2CCN(c3cccc(C(F)(F)F)c3)CC2)cc1", "Potency": "inconclusive: 14.6 µM [cytotoxic, partial curve, poor fit]"}, {"compound": "Cc1ccnc(NC(=O)CCCc2ccccc2)c1", "Potency": "inconclusive: 25.9 µM [cytotoxic, partial curve, poor fit]"}, {"compound": "O=C(CNc1cccc([N+](=O)[O-])c1)N/N=C/c1ccc(F)cc1", "Potency": "inconclusive: 32.6 µM [rising, single point]"}, {"compound": "COCCNC(=O)NC(=O)COC(=O)c1cc([N+](=O)[O-])ccc1Sc1nc(C)cs1", "Potency": "inactive"}]}]}
